# Assay results: PubChem BioAssay AID2685 (National Center for Advancing Translational Sciences (NCATS), 2010)
# This is one part of the list. Further columns of the screen follow, without active or inactive calls. The list favours compounds with an active or inconclusive main result. Words in brackets tell the shape of the fitted curve; partial curves, single points and poor fits give uncertain potencies.
# Test: qHTS Assay for Lipid Storage Modulators in Drosophila S3 Cells;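 on cell number change: cells counted by Cell Tracker Red CMTPX staining in the red channel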
# Conditions: BODIPY lipid droplet fluorescence, 18-24 h; for cell number change: measured here: cell count max response, cells fed with added oleic acid
# Outline: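 Drosophila S3 cells loaded with oleic acid (400 uM, as added) and compounds at several concentrations; lipid droplets imaged by 488-nm laser-scanning cytometry, 500–530 nm intensity and object ratio to cell channel. Percent activity normalized to 20 uM Triacsin C.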
# [1] = measured here: cell number channel AC50, cells fed with added oleic acid
# [2] = measured here: lipid fluorescence (Fed channel) AC50, cells fed with added oleic acid
Structure (SMILES),cell number change [%],AC50 [1],AC50 [2]
CCOc1cc(/C=C2\C(=N)N3N=C(S(C)(=O)=O)SC3=NC2=O)ccc1OCCOc1cccc(OC)c1,-31.1,"0.058 µM [falling, full curve, poor fit]","9.2 µM [falling, partial curve]"
CCCCC(CC)CNC(=O)CCCCn1c(=O)[nH]c2ccsc2c1=O (configuration not stated),-22.8,,"16.4 µM [falling, single point]"
CC(C)(C(=O)N[C@H](CO)c1ccccc1)C(=O)N[C@H](CO)c1ccccc1,2.91,,
CCOc1ccc2nc3cc(NCc4ccc(OC)cc4)ccc3c(N)c2c1,-93.4,"25.9 µM [falling, single point]","16.4 µM [falling, partial curve]"
CCOC(=O)C(=O)c1csc(NC(=O)COc2ccc(N(C)S(=O)(=O)c3ccc(F)cc3)cc2)n1,-12.9,,"6.51 µM [rising, single point]"
CC(C)C(=O)N1CCN(c2ccccc2NC(=O)COc2ccc(C3CCCCC3)cc2)CC1,13.3,,
Cc1ccc(-c2nc3ccccc3[nH]2)cc1NC(=O)c1ccco1,10.6,"0.0651 µM [rising, full curve, poor fit]","0.0651 µM [rising, full curve, poor fit]"
CN(C)S(=O)(=O)c1ccc(C(=O)OCCn2cnc3c2c(=O)n(C)c(=O)n3C)cc1,6.87,,"0.731 µM [falling, single point]"
Cc1ccccc1Nc1nc(NCc2ccco2)c2ccccc2n1,-55.1,"20.6 µM [falling, partial curve]","20.6 µM [falling, partial curve]"
CCCCN(C)CCCNC(=O)c1cccc(N2CCCC2=O)c1,-115,"20.6 µM [falling, single point]",
COc1ccc(OCc2nnc(SCC(=O)NCc3ccco3)o2)cc1,1.43,,"6.51 µM [rising, full curve]"
CC1(c2ccccc2Cl)NC(=O)N(CC(=O)N2CCc3ccccc3C2)C1=O (configuration not stated),-7.47,,"0.00517 µM [falling, full curve, poor fit]"
CCn1nc(C)c(/C=C/C(=O)Nc2ccc(C)cc2C)c1C,13.5,"1.84 µM [rising, single point]","2.31 µM [rising, full curve]"
O=C(NCC1CCN(C(=O)c2ccc([N+](=O)[O-])cc2)CC1)c1ccc([N+](=O)[O-])cc1,28.2,,
COC(=O)C1C(=O)C(C(=O)c2ccccc2)C(=O)CC1(C)C (configuration not stated),8.92,,"29.1 µM [rising, single point]"
Cc1ccc[n+](CC(=O)Nc2ccc([N+](=O)[O-])cc2Cl)c1,,"0.00461 µM [falling, full curve, poor fit]",
CCOC(=O)c1sc(=NC(=O)c2cccc(Br)c2)n(C)c1C,-0.236,,"29.1 µM [rising, single point]"
CC(C)C(=O)Nc1ccc2c(c1)nc(CCN1CCN(C)CC1)n2C,-2.72,,"18.4 µM [falling, partial curve, poor fit]"
CCc1ccccc1NC(=O)COc1ccc(C(=S)N2CCCC2)cc1,,,"0.58 µM [falling, single point]"

Structure (SMILES),cell number change [%],AC50 [1],AC50 [2]
COc1ccc(CN2CC(=O)N(c3ccc(C)cc3)C2=S)cc1OC,6.89,,"0.517 µM [rising, partial curve]"
O=S(=O)(c1ccc(Cl)cc1)c1ccccn1,3.4,,"0.00517 µM [rising, full curve, poor fit]"
Cc1cc(C(=O)N(C)Cc2ccc(Br)cc2)no1,95.7,"20.6 µM [rising, partial curve]","25.9 µM [rising, partial curve]"
O=C(O)c1ccc(F)c(S(=O)(=O)Nc2ccccc2Cl)c1,-0.472,,"5.17 µM [rising, partial curve]"
Cc1ccc(NC2Nc3cc(C)nn3S2)c(C)c1 (configuration not stated),11.9,,"4.11 µM [rising, single point]"
Cc1ccc(C)c(SCC(=O)OCC(=O)Nc2ccc(S(=O)(=O)N3CCOCC3)cc2)c1,-6.4,,
O=C(Cn1nc(-c2ccccc2)c2ccccc2c1=O)Nc1cccnc1,0.482,"0.651 µM [rising, single point]","1.84 µM [rising, partial curve]"
O=C(Nc1sc2c(c1C(=O)N1CCOCC1)CCCCC2)c1cccnc1,-1.38,,"29.1 µM [rising, single point]"
CCc1ccc(N2CC(C(=O)OCC(=O)c3c(N)n(CC(C)C)c(=O)n(C)c3=O)CC2=O)cc1 (configuration not stated),14.5,,
N#Cc1ccc(NC(=O)CSc2n[nH]c(=O)n2C2CC2)cc1,14.7,"0.103 µM [falling, full curve, poor fit]","0.164 µM [falling, full curve, poor fit]"
O=C(NNC(=O)c1ccc(-n2cncn2)c([N+](=O)[O-])c1)c1ccc(Cl)cc1,-31.4,"9.2 µM [falling, partial curve, poor fit]",
Cc1ccccc1OCCOCCN1CCCCCC1,-26.9,,"0.13 µM [rising, full curve, poor fit]"
Cc1ccc(S(=O)(=O)Nc2ccc(NC(=O)/C=C/C(=O)O)cc2)cc1,-9.23,,
CCOc1ccc2nc(NC(=O)Cn3cnc4c3c(=O)n(C)c(=O)n4C)sc2c1,-12.8,,
O=C(Nc1cc(C(F)(F)F)ccc1N1CCOCC1)c1ccc[n+]([O-])c1,-33.6,"2.59 µM [falling, full curve]",
O=C(NCC(=O)N(c1ccccc1)C(C(=O)NCC1CCCO1)c1ccccc1)c1cccs1 (configuration not stated),8.26,,"6.51 µM [rising, single point]"
C/C(N)=C(/C#N)C(=O)COC(=O)c1ccc(C#N)cc1,39.5,,"0.0731 µM [falling, full curve, poor fit]"
O=C1CC(c2ccc(S(=O)(=O)NCc3ccncc3)cc2)CN1 (configuration not stated),,,"0.116 µM [falling, full curve, poor fit]"

# Record cards, as listed above.
# Cc1ccc(C)c(SCC(=O)OCC(=O)Nc2ccc(S(=O)(=O)N3CCOCC3)cc2)c1 is listed as cell number change [%]: -6.4
# CCc1ccc(N2CC(C(=O)OCC(=O)c3c(N)n(CC(C)C)c(=O)n(C)c3=O)CC2=O)cc1 (configuration not stated) is listed as cell number change [%]: 14.5
